From ChEMBL document CHEMBL1157752, “Lessons learned from herbal medicinal products: the example of St. John's Wort (perpendicular)” (J Nat Prod, 2010)

Protein sequences, listed by entry. Tags and fused reporters are not part of them.
UniProt P08684, whole entry: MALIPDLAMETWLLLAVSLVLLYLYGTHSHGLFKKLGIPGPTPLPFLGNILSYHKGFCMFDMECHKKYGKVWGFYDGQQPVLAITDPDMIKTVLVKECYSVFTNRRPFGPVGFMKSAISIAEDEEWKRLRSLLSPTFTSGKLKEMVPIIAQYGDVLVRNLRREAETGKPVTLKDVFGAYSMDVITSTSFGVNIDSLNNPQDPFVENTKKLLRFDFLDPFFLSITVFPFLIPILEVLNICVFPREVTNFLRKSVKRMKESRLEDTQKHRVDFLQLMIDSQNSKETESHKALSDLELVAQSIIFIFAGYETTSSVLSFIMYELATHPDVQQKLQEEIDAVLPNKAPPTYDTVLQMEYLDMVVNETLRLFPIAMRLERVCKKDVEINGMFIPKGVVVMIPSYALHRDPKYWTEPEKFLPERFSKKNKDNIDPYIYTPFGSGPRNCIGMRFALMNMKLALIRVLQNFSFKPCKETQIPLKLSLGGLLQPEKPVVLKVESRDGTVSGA

Target: Cytochrome P450 3A4 (Homo sapiens, UniProt P08684)

Compound: CC(C)=CCC[C@]1(C)[C@@H](CC=C(C)C)C[C@]2(CC=C(C)C)C(=O)C(CC=C(C)C)=C(O)[C@@]1(C(=O)C(C)C)C2=O
- IC50: 2300 nM
